Results reported in patent publication US7989394B2, “Substituted 1-(azolin-2-yl)-amino-2-aryl-1-hetaryl-ethane compounds” (BASF SE, priority 2006, dated 2011).
Some entries share one result that the patent states for a list of compounds. For some of these results: For at least one compound, name, drawing or mass did not settle the structure.

How the values were obtained:
Type in all cases: in vivo
[1] = test system: Cotton Aphid (Aphis gossypii); test: Cotton aphid (Aphis gossypii) mortality on dipped cotton plants; conditions: 300 ppm; cotton cotyledons dipped; aphid mortality after 5 days
Protocol: I. Cotton Aphid (Aphis gossypii)
(§1) Cotton plants in the cotyledon stage (variety ‘Delta Pine’) are infested with approximately 100 laboratory-reared aphids by placing infested leaf sections on top of the test plants. The leaf sections are removed after 24 hours. The cotyledons of the intact plants are dipped into gradient solutions of the test compound. Aphid mortality on the treated plants, relative to mortality on check plants, is determined after 5 days.

[2] = test system: Green Peach Aphid (Myzus persicae); test: Green peach aphid (Myzus persicae) mortality on dipped pepper plants; conditions: 300 ppm; pepper leaves dipped; aphid mortality after 5 days
Protocol: II. Green Peach Aphid (Myzus persicae)
as §1, with “Pepper” for “Cotton”, “2nd leaf-pair” for “cotyledon”, “‘California Wonder’)” for “‘Delta Pine’)”, “40” for “100”, “leaves” for “cotyledons”

[3] = test system: Cowpea Aphid (Aphis craccivora); test: Cowpea aphid (Aphis craccivora) mortality on sprayed cowpea beans; conditions: 300 ppm; cowpea beans sprayed with 5 mL; mortality after 72 h
[4] = test system: Silverleaf Whitefly (Bemisia argentifolii), Adult; test: Silverleaf whitefly (Bemisia argentifolii) adult mortality on dipped cotton plants; conditions: 300 ppm; cotton cotyledons dipped; whitefly adults; mortality 3 days after treatment

In the case of OCCNC(=S)NC(Cc1ccccc1)c1cccs1 (racemic) [Example 7], the “mortality in comparison with untreated controls” value (“mortality in comparison” for short) [1] is reported as “over 70%” and the “mortality in comparison” value [2] is reported as “over 70%”.
With Cc1cccc(CC(NC(=S)NCCO)c2cccs2)c1 (racemic) [Example 8] the “mortality in comparison” value [1] was “over 70%” and the “mortality in comparison” value [2] was “over 70%”.
CC(=O)OCCNC(=S)NC(Cc1cc(C)cc(C)c1)c1ccco1 (racemic) [Example 10] was tested, and the “mortality in comparison” value [1] was “over 70%”.
With CC(=O)OCCNC(=S)NC(Cc1cc(C)cc(C)c1)c1cccnc1 (racemic) [Example 20] the “mortality in comparison” value [1] was “over 70%” and the “mortality in comparison” value [2] was “over 70%”.
For Cc1cc(C)cc(CC(NC(=S)NCCO)c2cccnc2)c1 (racemic) [Example 21], the “mortality in comparison” value [1] was “over 70%” and the “mortality in comparison” value [2] was “over 70%”.
In the case of Cc1cc(C)cc(CC(NC2=NCCS2)c2cccnc2)c1 (racemic) [Example 27], the “mortality in comparison” value [1] is reported as “over 70%” and the “mortality in comparison” value [2] is reported as “over 70%”.
For Clc1cccc(CC(NC2=NCCS2)c2cccnc2)c1 (racemic) [Example 31], the “mortality in comparison” value [1] was “over 70%” and the “mortality in comparison” value [2] was “over 70%”.
Cc1cc(C)cc(CC(NC2=NCCS2)c2ccc(C)s2)c1 (racemic) [Example 32] was tested, and the “mortality in comparison” value [1] was “over 70%”, the “mortality in comparison” value [3] was “over 70%” and the “mortality in comparison” value [2] was “over 70%”.
With Cc1cc(C)cc(CC(NC2=NCCS2)c2sccc2C)c1 (racemic) [Example 33] the “mortality in comparison” value [1] was “over 70%”, the “mortality in comparison” value [3] was “over 70%” and the “mortality in comparison” value [2] was “over 70%”.
In the case of Cc1cc(C)cc(CC(NC2=NCCS2)c2ccc(Cl)s2)c1 (racemic) [Example 34], the “mortality in comparison” value [1] is reported as “over 70%”, the “mortality in comparison” value [3] is reported as “over 70%” and the “mortality in comparison” value [2] is reported as “over 70%”.
In the case of Cc1cc(C)cc(CC(NC2=NCCS2)c2cc(C#N)cs2)c1 (racemic) [Example 35], the “mortality in comparison” value [1] is reported as “over 70%”, the “mortality in comparison” value [4] is reported as “over 70%” and the “mortality in comparison” value [3] is reported as “over 70%”.
In the case of Cc1cc(C)cc(CC(NC2=NCCS2)c2cc(Br)cs2)c1 (racemic) [Example 36], the “mortality in comparison” value [1] is reported as “over 70%”, the “mortality in comparison” value [4] is reported as “over 70%” and the “mortality in comparison” value [3] is reported as “over 70%”. For the same molecule, the “mortality in comparison” value [2] was “over 70%”.
For Cc1cc(C)cc(CC(NC2=NCCS2)c2ccncc2F)c1 (racemic) [Example 37], the “mortality in comparison” value [1] was “over 70%”, the “mortality in comparison” value [3] was “over 70%” and the “mortality in comparison” value [2] was “over 70%”.
Cc1cc(C)cc(CC(NC2=NCCS2)c2ccncc2Cl)c1 (racemic) [Example 38] was tested, and the “mortality in comparison” value [1] was “over 70%” and the “mortality in comparison” value [3] was “over 70%”.
In the case of Cc1cc(C)cc(CC(NC2=NCCS2)c2ccc(Br)s2)c1 (racemic) [Example 39], the “mortality in comparison” value [1] is reported as “over 70%”, the “mortality in comparison” value [3] is reported as “over 70%” and the “mortality in comparison” value [2] is reported as “over 70%”.
For Cc1cc(C)cc(CC(NC2=NCCS2)c2ccc(Cl)o2)c1 (racemic) [Example 43], the “mortality in comparison” value [1] was “over 70%”, the “mortality in comparison” value [4] was “over 70%” and the “mortality in comparison” value [3] was “over 70%”. The “mortality in comparison” value [2] was “over 70%”.
For Cc1cc(C)cc(CC(NC2=NCCS2)c2cccc(C)n2)c1 (racemic) [Example 45], the “mortality in comparison” value [1] was “over 70%” and the “mortality in comparison” value [2] was “over 70%”.
With Cc1cc(C)cc(CC(NC2=NCCS2)c2ccc(C)o2)c1 (racemic) [Example 46] the “mortality in comparison” value [1] was “over 70%”, the “mortality in comparison” value [3] was “over 70%” and the “mortality in comparison” value [2] was “over 70%”.
Cc1cc(C)cc(CC(NC2=NCCS2)c2cc(C)c(C)o2)c1 (racemic) [Example 48] was tested, and the “mortality in comparison” value [1] was “over 70%”, the “mortality in comparison” value [3] was “over 70%” and the “mortality in comparison” value [2] was “over 70%”.
For Cc1cc(C)cc(CC(NC2=NCCS2)c2cn(C)nc2C)c1 (racemic) [Example 49], the “mortality in comparison” value [2] was “over 70%”.
In the case of Cc1cc(C)cc(CC(NC2=NCCS2)c2csc(Cl)c2Cl)c1 (racemic) [Example 50], the “mortality in comparison” value [1] is reported as “over 70%”, the “mortality in comparison” value [4] is reported as “over 70%” and the “mortality in comparison” value [3] is reported as “over 70%”. The “mortality in comparison” value [2] was “over 70%”.
With Cc1cc(C)cc(CC(NC2=NCCS2)c2cc(C#N)n(C)c2C)c1 (racemic) [Example 53] the “mortality in comparison” value [1] was “over 70%”, the “mortality in comparison” value [3] was “over 70%” and the “mortality in comparison” value [2] was “over 70%”.
For Cc1ccc(C(Cc2ccccc2)NC2=NCCS2)s1 (racemic) [Example 54], the “mortality in comparison” value [1] was “over 70%”, the “mortality in comparison” value [3] was “over 70%” and the “mortality in comparison” value [2] was “over 70%”.
With Cc1ccc(C(Cc2cccc(Cl)c2)NC2=NCCS2)s1 (racemic) [Example 55] the “mortality in comparison” value [1] was “over 70%”, the “mortality in comparison” value [3] was “over 70%” and the “mortality in comparison” value [2] was “over 70%”.
Cc1cccc(CC(NC2=NCCS2)c2ccc(C)s2)c1 (racemic) [Example 56] was tested, and the “mortality in comparison” value [3] was “over 70%” and the “mortality in comparison” value [2] was “over 70%”.
For Cc1ccc(CC(NC2=NCCS2)c2ccc(C)s2)cc1 (racemic) [Example 57], the “mortality in comparison” value [1] was “over 70%”, the “mortality in comparison” value [3] was “over 70%” and the “mortality in comparison” value [2] was “over 70%”.
In the case of Cc1ccc(C(Cc2ccccc2C)NC2=NCCS2)s1 (racemic) [Example 58], the “mortality in comparison” value [3] is reported as “over 70%”.
For Cc1cc(C)cc(CC(NC2=NCCS2)c2sccc2Br)c1 (racemic) [Example 59], the “mortality in comparison” value [1] was “over 70%”, the “mortality in comparison” value [4] was “over 70%” and the “mortality in comparison” value [3] was “over 70%”. For the same molecule, the “mortality in comparison” value [2] was “over 70%”.
